Usually Kd stands for the free concentration of one partner at which half of the binding sites on the other are occupied at equilibrium, for simple one-to-one binding.

Amino acid sequences for entries named in this document (tags omitted). Residues count along the entry.
UniProt P10145, 28-99: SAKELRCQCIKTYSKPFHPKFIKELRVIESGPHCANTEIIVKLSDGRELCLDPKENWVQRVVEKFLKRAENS

In this data set the target is Interleukin-8 (IL8, CXCL8), C-terminal His-tagged (Homo sapiens) (UniProt P10145). Nature of the data set: binding assay. The settings on record: 2'-F G, 2'-OMe A/C/U, 5' C6NH2, 3' idT; TR-FRET, 5 nM IL8, protein-limited; bead flow 20 nM; purified recombinant protein; protein details: C-terminal 6xHis (Sino Biological); label: Alexa Fluor 647. For orientation: In TR-FRET formats the signal depends on donor and acceptor labels being close together.

With “UACGGUGGGAAAUGUGAGAUGGGUUGCCGUAUUUU [Aptamer 8]”, the Kd turned out to be 2 nM.

For the origin of these results see patent US20210230599.
